Like-named read-outs stand apart in the source and are kept apart here. These are yes or no findings as the source states them, for the method shown. Binding seen in cells or lysates may run through a third protein. Some results given as binding are weak or reduced against the parent protein; the word gives no strength. For some assays here: Tags and fused reporters may be left off the sequences shown.

Protein sequences, listed by entry. Tags and fused reporters are not part of them.
UniProt P38919: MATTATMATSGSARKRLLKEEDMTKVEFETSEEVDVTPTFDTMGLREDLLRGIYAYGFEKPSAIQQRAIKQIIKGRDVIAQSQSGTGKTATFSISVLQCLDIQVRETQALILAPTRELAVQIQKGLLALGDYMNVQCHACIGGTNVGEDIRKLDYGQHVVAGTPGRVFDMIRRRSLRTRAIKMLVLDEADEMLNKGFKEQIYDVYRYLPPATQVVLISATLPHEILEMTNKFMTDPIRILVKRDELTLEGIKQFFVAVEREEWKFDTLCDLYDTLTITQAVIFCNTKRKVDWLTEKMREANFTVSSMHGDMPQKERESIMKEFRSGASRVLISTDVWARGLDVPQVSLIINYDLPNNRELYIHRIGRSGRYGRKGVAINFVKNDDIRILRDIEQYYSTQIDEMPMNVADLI
UniProt P61326: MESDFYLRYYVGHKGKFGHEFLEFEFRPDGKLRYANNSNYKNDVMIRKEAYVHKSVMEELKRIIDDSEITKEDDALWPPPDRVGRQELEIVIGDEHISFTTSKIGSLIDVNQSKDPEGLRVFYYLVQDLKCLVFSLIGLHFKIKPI
UniProt Q9HAU5: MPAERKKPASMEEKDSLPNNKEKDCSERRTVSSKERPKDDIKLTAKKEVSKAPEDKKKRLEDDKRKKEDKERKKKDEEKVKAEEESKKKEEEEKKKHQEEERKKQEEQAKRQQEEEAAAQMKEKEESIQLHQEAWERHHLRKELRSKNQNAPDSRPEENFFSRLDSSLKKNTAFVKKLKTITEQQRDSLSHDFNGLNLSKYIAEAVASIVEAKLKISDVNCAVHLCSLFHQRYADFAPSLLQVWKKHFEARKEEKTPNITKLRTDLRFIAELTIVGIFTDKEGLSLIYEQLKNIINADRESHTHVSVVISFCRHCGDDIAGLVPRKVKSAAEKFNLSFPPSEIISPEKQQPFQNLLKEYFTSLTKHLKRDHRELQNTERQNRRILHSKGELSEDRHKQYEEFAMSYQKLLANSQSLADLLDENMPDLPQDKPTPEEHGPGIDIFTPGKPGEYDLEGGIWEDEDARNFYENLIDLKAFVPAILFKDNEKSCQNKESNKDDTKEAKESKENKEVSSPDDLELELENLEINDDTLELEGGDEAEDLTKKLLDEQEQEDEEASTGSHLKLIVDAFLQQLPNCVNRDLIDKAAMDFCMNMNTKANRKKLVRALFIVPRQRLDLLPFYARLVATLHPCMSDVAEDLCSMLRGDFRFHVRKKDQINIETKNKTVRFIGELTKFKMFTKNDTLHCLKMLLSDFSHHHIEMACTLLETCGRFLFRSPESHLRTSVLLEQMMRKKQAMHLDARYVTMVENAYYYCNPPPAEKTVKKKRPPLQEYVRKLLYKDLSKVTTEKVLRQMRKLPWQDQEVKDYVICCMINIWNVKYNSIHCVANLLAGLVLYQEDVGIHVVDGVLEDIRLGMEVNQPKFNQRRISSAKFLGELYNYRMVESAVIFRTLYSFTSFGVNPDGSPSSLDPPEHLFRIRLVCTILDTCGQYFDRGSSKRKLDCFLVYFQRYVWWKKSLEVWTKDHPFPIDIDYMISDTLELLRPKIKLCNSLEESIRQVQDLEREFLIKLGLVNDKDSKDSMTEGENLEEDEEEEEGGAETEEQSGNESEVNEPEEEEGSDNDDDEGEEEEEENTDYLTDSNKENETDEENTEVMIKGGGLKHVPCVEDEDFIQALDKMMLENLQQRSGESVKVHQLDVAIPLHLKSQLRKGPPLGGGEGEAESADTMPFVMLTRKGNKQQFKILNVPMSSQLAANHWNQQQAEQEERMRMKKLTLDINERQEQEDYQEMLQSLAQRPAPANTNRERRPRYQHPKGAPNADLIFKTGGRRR
UniProt O15234: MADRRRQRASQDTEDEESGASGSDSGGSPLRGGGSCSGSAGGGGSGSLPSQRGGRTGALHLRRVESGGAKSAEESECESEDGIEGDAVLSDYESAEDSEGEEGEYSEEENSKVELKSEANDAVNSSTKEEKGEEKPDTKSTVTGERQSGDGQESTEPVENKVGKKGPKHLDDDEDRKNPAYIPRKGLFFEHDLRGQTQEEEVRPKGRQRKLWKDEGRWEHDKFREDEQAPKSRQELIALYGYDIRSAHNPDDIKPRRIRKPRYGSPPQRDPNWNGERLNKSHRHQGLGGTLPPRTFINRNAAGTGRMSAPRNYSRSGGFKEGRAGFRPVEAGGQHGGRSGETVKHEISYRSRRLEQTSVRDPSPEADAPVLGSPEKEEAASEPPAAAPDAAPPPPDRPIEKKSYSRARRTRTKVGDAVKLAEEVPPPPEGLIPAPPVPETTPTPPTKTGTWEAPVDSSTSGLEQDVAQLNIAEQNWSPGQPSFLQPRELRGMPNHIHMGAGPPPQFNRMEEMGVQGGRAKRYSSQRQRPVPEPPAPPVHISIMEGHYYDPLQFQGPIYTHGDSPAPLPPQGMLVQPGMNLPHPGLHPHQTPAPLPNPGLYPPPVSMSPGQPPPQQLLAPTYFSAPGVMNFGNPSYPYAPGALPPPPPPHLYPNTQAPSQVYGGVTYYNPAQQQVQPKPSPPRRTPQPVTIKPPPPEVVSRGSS
UniProt P15170: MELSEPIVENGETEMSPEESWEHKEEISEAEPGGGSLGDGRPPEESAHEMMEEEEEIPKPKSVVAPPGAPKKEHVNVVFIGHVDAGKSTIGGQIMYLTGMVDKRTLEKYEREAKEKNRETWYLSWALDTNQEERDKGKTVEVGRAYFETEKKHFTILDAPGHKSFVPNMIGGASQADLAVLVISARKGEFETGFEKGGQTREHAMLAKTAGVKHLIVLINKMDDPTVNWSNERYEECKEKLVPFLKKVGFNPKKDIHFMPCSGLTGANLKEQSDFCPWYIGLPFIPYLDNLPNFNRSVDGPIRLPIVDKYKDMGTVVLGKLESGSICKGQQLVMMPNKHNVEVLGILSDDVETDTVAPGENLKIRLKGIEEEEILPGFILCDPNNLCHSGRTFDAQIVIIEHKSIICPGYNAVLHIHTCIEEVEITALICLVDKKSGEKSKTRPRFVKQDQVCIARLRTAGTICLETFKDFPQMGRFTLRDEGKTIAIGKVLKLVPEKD

From publication doi:10.1101/2021.07.02.450872 come the findings set out here.

Holding throughout (experiment): co-IP
For assay [1], the target named is EIF4A3 (endogenous, HCT116) (human (endogenous in HCT116)) (UniProt P38919).
Assay [2] concerns the target T1, FLAG-tagged human UPF3B (human) (UniProt Q9BZI7).
T1 sequence: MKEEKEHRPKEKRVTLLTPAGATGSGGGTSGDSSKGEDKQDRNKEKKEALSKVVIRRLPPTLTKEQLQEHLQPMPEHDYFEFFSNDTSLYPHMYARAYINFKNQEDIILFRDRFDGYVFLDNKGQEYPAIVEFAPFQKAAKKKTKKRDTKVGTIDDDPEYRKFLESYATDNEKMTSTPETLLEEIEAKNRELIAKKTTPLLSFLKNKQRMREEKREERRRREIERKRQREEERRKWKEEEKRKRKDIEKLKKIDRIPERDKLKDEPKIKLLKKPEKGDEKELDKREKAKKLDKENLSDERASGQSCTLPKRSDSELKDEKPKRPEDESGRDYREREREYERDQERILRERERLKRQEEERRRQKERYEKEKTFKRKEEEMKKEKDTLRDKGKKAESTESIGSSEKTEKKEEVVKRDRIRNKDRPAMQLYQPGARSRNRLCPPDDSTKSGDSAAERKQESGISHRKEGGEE

For assay [3], the target named is T2, FLAG-tagged human UPF3A (human) (UniProt Q9H1J1).
T2 sequence: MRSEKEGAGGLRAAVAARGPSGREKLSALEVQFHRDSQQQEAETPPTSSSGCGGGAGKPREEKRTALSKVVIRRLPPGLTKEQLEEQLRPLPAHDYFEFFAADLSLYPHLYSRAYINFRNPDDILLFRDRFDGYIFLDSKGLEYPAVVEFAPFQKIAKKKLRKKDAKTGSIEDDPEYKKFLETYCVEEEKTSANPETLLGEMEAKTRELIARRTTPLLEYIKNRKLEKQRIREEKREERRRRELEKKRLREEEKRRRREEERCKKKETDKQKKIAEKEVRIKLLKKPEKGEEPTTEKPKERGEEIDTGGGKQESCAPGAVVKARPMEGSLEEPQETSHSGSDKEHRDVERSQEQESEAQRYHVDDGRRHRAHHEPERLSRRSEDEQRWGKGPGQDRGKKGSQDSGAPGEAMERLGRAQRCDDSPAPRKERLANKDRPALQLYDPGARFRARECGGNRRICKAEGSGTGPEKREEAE

For assay [4], the target named is endogenously FLAG-tagged MAGOH (human (endogenous in HCT116)) (UniProt P61326).
For assay [5], the target named is endogenously MYC-tagged UPF2 (human (endogenous in HCT116)) (UniProt Q9HAU5).
Assay [6] concerns the target CASC3 (endogenous, HCT116) (human (endogenous in HCT116)) (UniProt O15234).
Assay [7] addresses T3, endogenously FLAG-tagged UPF1 (human (endogenous in HCT116)) (UniProt Q92900).
T3 sequence: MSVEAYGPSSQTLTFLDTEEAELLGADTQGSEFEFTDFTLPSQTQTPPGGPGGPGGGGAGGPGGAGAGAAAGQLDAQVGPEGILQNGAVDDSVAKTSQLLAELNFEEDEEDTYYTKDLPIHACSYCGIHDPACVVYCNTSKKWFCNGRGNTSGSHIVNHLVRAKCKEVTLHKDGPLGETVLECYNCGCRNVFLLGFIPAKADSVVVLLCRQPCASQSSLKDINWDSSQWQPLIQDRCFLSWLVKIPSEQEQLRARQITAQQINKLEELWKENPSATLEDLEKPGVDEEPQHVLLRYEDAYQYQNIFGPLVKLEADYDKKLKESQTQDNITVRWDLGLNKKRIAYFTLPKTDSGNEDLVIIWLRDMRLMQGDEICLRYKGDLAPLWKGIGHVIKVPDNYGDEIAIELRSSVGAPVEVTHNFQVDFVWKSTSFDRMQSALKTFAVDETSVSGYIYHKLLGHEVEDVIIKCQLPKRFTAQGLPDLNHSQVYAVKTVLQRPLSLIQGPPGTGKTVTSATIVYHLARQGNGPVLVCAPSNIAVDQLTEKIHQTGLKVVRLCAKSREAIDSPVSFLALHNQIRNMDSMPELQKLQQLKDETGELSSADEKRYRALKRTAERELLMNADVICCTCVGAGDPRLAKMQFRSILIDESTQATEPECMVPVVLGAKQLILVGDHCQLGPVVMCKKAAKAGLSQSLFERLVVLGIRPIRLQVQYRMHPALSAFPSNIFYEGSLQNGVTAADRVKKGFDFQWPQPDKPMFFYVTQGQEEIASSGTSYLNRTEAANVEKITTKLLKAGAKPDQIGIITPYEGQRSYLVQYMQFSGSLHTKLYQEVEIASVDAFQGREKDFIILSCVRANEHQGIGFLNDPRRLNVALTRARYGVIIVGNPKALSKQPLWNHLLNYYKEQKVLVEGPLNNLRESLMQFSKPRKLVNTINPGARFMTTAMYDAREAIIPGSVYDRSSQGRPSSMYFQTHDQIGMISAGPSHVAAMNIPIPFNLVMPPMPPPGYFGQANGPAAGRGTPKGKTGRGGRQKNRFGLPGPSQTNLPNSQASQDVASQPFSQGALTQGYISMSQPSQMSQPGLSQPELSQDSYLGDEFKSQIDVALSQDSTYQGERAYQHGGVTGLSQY

In assay [8] the target is endogenously FLAG-tagged MAGOH (human (endogenous in HCT116)) (UniProt P61326). The source holds these as a separate data set.
The target of assay [9] is EIF4A3 (endogenous, HCT116) (human (endogenous in HCT116)) (UniProt P38919). This is another data set of the same source.
Assay [10] concerns the target endogenously MYC-tagged UPF2 (human (endogenous in HCT116)) (UniProt Q9HAU5). This is another data set of the same source.
Assay [11] has as its target EIF4A3 (endogenous, HeLa) (human (endogenous in HeLa)) (UniProt P38919).

Consider “endogenously FLAG-tagged CASC3 (from UniProt O15234 1-703)”, for which, in assay [1], the binding result is on record as “binds”. Regarding “eRF3 (GSPT1) (from UniProt P15170 1-499)”, the binding result in [2] and in [3] was “no binding” each time.

Take “UPF2 (endogenous, HCT116 3DKO cells) (from UniProt Q9HAU5 1-1272)”: the binding entry in assay [2] and in assay [3] was “binds” throughout. As to “endogenously MYC-tagged UPF2 (from UniProt Q9HAU5 1-1272)”, the binding entry in assay [4] is “binds”. Regarding “CASC3 (endogenous, HCT116) (from UniProt O15234 1-703)”, the binding result in assay [1] and in assay [5] was “binds” in each case.

B1: UPF3A (endogenous, HCT116) (protein, UniProt Q9H1J1 1-476)
chain: T2 sequence
As for B1, the binding result in assay [6], in assay [7], in assay [8], in assay [9] and in assay [10] was “binds” each time.

B2: UPF3A (endogenous, HeLa) (protein, UniProt Q9H1J1 1-476)
chain: T2 sequence
For B2, in assay [11], the binding result was “binds”.

B3: FLAG-tagged human UPF3A (protein, UniProt Q9H1J1 1-476)
chain: T2 sequence
Regarding B3, the binding entry in assay [9] is recorded as “binds”.

B4: UPF3B (endogenous, HCT116) (protein, UniProt Q9BZI7 1-483)
chain: MKEEKEHRPKEKRVTLLTPAGATGSGGGTSGDSSKGEDKQDRNKEKKEALSKVVIRRLPPTLTKEQLQEHLQPMPEHDYFEFFSNDTSLYPHMYARAYINFKNQEDIILFRDRFDGYVFLDNKGQEYPAIVEFAPFQKAAKKKTKKRDTKVGTIDDDPEYRKFLESYATDNEKMTSTPETLLEEIEAKNRELIAKKTTPLLSFLKNKQRMREEKREERRRREIERKRQREEERRKWKEEEKRKRKDIEKLKKIDRIPERDKLKDEPKIKVHRFLLQAVNQKNLLKKPEKGDEKELDKREKAKKLDKENLSDERASGQSCTLPKRSDSELKDEKPKRPEDESGRDYREREREYERDQERILRERERLKRQEEERRRQKERYEKEKTFKRKEEEMKKEKDTLRDKGKKAESTESIGSSEKTEKKEEVVKRDRIRNKDRPAMQLYQPGARSRNRLCPPDDSTKSGDSAAERKQESGISHRKEGGEE
On to B4, for which the binding entry in assay [7] and in assay [10] was “binds” each time.
